Test results published in doi:10.1101/2022.01.11.475891.

What was measured:
[1] = target: T1, IrtB with a C-terminal 10x His tag (subunit of Mtb IrtAB) (M. tuberculosis H37Rv) (UniProt P9WQJ7); assay: cryo-EM structure
T1 sequence: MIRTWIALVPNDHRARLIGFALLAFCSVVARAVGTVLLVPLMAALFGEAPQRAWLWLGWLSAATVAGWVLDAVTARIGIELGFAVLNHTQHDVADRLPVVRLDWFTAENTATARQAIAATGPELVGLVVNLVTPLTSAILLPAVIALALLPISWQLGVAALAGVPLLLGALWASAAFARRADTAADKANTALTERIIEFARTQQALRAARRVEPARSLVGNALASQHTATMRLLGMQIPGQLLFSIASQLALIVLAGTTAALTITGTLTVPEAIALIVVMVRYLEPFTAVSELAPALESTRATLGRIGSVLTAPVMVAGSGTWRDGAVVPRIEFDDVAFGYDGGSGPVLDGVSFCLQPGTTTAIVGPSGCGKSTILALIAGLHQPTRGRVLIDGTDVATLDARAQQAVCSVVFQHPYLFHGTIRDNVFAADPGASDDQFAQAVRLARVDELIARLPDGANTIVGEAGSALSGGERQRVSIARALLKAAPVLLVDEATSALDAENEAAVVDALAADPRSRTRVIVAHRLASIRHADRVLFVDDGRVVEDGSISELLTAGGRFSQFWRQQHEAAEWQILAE

[2] = target: T1, IrtB with a C-terminal 10x His tag (subunit of Mtb IrtAB) (M. tuberculosis H37Rv); assay: cryo-EM structure; remark: listed apart in the source

## SID truncated IrtA (subunit of IrtAB_(ΔSID)) (from UniProt P9WQJ9) (domain or fragment)
[1]
  binding: binds
[2]
  binding: binds

Read-outs that look alike come from different tables or passages of the source. These are yes or no findings as the source states them, for the method shown. Binding calls can cover weak binding; strength is not graded here. Where a sequence is shown, tags or fusion partners need not be part of it.
